Test results published in publication PMC4725857.
No constants are given. Whether binding was seen depends on the method and setting.

How the values were obtained:
[1] = molecular target: T1, BBK32-FL (recombinant BBK32, residues 21 to 354) (B. burgdorferi B31) (UniProt O50835); assay: SPR; Biacore 3000, 25°C; BBK32 proteins immobilised by amine coupling on a C1 sensor chip; running buffer HBS-T-Ca2+ (20 mM HEPES pH 7.3, 140 mM NaCl, 0.005% Tween 20, 5 mM CaCl2), 10 μl/min; C1 0.2-100 nM, C1r enzyme 0.39-200 nM or 2.0-1000 nM series, 1:1 (Langmuir) kinetic fit; single C1 components at a fixed 50 nM; both purified
T1 sequence: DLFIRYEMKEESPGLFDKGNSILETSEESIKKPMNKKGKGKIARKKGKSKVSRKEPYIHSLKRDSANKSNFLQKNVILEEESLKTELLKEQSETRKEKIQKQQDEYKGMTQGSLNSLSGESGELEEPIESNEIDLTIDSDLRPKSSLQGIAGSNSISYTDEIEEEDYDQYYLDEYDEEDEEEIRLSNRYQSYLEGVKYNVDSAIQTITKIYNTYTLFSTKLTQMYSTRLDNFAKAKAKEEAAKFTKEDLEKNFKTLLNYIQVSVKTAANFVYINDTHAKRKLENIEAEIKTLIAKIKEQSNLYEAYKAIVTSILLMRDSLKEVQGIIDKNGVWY

[2] = molecular target: T2, BBK32-C (C-terminal region of BBK32, residues 206-354) (B. burgdorferi B31) (UniProt O50835); assay: as above
T2 sequence: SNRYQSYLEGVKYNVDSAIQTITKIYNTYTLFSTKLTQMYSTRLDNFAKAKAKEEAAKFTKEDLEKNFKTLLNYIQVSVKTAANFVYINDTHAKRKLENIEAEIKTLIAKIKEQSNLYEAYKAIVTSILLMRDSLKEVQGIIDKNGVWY

| Substance | binding [1] | binding [2] |
| --- | --- | --- |
| C1s proenzyme (human complement C1s, zymogen) | no binding (tested: 50 nM) | no binding (tested: 50 nM) |
| C1s enzyme (activated human complement C1s protease) | no binding (tested: 50 nM) |  |
